Results are given in words; binding and its absence hold for the method and conditions named. A result given as binding can be weak or reduced; the word gives no strength. For some assays here: In cells and extracts the contact can be indirect.
What was measured:
recombinant VEGFR-2 = recombinant VEGFR-2 (UniProt P35968); test: pull-down; cell-free; recombinant VEGFR-2 first incubated with protein G beads, then recombinant EMMPRIN (or VEGF) added; bound proteins analysed by Western blotting; both purified
[1] = target: VEGF (human (endogenous in HMEC, M10, MDA-MB-231, BLM)) (UniProt P15692); test: co-IP; lysates of HMEC, M10 (and MDA-MB-231) cells in TBS with 0.5% Nonidet P-40; IP with anti-VEGFR-2 or anti-VEGF and Protein G-sepharose, blot with anti-EMMPRIN; also after EMMPRIN siRNA or scrambled siRNA
[2] = target: pVEGFR-2 (human (endogenous in HMEC, M10, BLM and human tumor tissues)) (UniProt P35968); test: proximity ligation; in situ PLA on cryosections of frozen tumor tissues fixed with 4% paraformaldehyde (human breast cancer and melanoma tissues; BLM-scrambled-miRNA and BLM-EMMPRIN-miRNA xenografts from nude mice)
[3] = target: pVEGFR-2 (human (endogenous in HMEC, M10, BLM and human tumor tissues)) (UniProt P35968); test: proximity ligation; in situ PLA (Duolink) on fixed cultured cells (HMEC, M10, MDA-MB-231; BLM-EMMPRIN-miRNA cells transfected with EMMPRIN constructs), primary antibodies to EMMPRIN, VEGFR-2, VEGF or pVEGFR-2 (Tyr 1175); confocal microscopy; with or without VEGF 50 ng/ml 5 min, EMMPRIN siRNA or scrambled siRNA
[4] = target: VEGF (human (endogenous in HMEC, M10, MDA-MB-231, BLM)) (UniProt P15692); test: as above

Protein sequences, listed by entry. Tags and fused reporters are not part of them. Lines headed by an entry give the natural chain unless they say otherwise; changes in a name come on top. Residues count along the entry.
UniProt P35968, residues 20-1356: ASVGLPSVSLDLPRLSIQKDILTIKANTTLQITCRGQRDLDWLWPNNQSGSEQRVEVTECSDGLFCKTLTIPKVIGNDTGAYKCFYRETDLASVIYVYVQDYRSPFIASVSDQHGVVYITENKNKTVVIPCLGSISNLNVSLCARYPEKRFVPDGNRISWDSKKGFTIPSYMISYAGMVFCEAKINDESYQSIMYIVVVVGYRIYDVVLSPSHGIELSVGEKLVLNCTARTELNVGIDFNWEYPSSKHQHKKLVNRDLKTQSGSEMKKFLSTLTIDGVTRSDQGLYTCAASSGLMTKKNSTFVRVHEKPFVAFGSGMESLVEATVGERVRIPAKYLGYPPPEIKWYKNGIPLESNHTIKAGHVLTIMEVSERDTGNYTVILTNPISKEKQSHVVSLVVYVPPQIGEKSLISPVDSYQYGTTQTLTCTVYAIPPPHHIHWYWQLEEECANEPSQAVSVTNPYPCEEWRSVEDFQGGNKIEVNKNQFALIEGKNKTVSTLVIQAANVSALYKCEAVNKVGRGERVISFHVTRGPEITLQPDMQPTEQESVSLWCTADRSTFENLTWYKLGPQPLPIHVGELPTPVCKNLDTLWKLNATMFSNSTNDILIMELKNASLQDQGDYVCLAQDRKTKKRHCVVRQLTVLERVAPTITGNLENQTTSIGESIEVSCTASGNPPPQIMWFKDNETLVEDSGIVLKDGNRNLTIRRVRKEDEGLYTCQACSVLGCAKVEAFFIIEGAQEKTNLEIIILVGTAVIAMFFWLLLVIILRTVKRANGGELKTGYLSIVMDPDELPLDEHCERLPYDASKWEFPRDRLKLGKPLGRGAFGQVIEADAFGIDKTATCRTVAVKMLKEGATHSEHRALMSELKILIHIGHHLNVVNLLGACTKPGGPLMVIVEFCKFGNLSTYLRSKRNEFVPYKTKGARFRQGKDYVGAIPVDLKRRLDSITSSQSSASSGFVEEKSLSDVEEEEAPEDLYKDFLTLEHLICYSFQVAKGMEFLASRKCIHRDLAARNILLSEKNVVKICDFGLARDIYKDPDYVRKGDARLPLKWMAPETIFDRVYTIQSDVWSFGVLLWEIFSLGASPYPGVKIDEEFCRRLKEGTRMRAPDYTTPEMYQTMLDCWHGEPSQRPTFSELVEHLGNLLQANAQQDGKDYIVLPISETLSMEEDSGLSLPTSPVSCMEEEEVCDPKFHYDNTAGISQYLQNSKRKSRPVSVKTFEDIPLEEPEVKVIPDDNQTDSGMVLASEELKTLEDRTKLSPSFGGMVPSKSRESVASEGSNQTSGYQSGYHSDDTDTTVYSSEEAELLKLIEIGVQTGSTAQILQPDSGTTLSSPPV
UniProt P15692: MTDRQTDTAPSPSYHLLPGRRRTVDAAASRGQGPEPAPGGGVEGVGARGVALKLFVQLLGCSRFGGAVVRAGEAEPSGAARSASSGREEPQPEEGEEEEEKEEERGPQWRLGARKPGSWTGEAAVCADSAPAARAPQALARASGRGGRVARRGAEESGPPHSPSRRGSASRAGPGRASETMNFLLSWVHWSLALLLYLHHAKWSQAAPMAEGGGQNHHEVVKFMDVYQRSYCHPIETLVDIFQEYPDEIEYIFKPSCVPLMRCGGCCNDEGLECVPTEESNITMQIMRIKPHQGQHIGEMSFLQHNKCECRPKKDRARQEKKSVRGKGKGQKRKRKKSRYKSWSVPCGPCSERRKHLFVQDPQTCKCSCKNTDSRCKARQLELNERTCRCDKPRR

Row | binding (recombinant VEGFR-2) | binding [1] | binding [2] | binding [3] | binding [4] | Substance
1 | binds | – | – | – | – | recombinant EMMPRIN (from UniProt P35613-2)
2 | – | binds | binds | binds | binds | EMMPRIN/CD147 (from UniProt P35613-2)

Source: publication PMC4496396
